Binding data for one molecule are collected here from publication PMC12979246.

By UniProt entry, the sequences of proteins in these tests, tags left out.
UniProt P67775: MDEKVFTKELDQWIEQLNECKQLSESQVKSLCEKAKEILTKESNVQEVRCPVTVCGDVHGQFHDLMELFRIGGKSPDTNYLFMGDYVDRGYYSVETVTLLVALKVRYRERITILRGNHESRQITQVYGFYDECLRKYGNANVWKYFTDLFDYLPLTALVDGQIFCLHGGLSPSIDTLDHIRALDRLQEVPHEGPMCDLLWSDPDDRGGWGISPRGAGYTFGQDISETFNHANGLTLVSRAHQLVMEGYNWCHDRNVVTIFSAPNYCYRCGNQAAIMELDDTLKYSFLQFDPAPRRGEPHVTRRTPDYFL

No constants are given. Whether binding was seen depends on the method and setting. Some binding calls cover weakened binding; strength is not graded here. Sequences can lack the tags named with a protein.

The assay concerns the target Flag-PPP2CA (human) (UniProt P67775). The assay can be described thus: co-purification (affinity, gel filtration, ion exchange); Flag-PPP2CA, His-PPP2R1A and HA-PPP2R3A co-expressed in Sf9; lysate on M2 anti-Flag agarose 2 h at 4°C, Flag peptide elution, Superdex 200 26/60 in 20 mM Tris-HCl pH 8.0, 100 mM KCl, 10% glycerol, then Mono Q with a KCl gradient; silver stain. For orientation: Size exclusion chromatography separates by hydrodynamic size, large species first.

B1: HA-PPP2R3A (protein, UniProt Q06190 1-1150)
chain: MAATYRLVVSTVNHYSSVVIDRRFEQAIHYCTGTCHTFTHGIDCIVVHHSVCADLLHIPVSQFKDADLNSMFLPHENGLSSAEGDYPQQAFTGIPRVKRGSTFQNTYNLKDIAGEAISFASGKIKEFSFEKLKNSNHAAYRKGRKVKSDSFNRRSVDLDLLCGHYNNDGNAPSFGLLRSSSVEEKPLSHRNSLDTNLTSMFLQNFSEEDLVTQILEKHKIDNFSSGTDIKMCLDILLKCSEDLKKCTDIIKQCIKKKSGSSISEGSGNDTISSSETVYMNVMTRLASYLKKLPFEFMQSGNNEALDLTELISNMPSLQLTPFSPVFGTEQPPKYEDVVQLSASDSGRFQTIELQNDKPNSRKMDTVQSIPNNSTNSLYNLEVNDPRTLKAVQVQSQSLTMNPLENVSSDDLMETLYIEEESDGKKALDKGQKTENGPSHELLKVNEHRAEFPEHATHLKKCPTPMQNEIGKIFEKSFVNLPKEDCKSKVSKFEEGDQRDFTNSSSQEEIDKLLMDLESFSQKMETSLREPLAKGKNSNFLNSHSQLTGQTLVDLEPKSKVSSPIEKVSPSCLTRIIETNGHKIEEEDRALLLRILESIEDFAQELVECKSSRGSLSQEKEMMQILQETLTTSSQANLSVCRSPVGDKAKDTTSAVLIQQTPEVIKIQNKPEKKPGTPLPPPATSPSSPRPLSPVPHVNNVVNAPLSINIPRFYFPEGLPDTCSNHEQTLSRIETAFMDIEEQKADIYEMGKIAKVCGCPLYWKAPMFRAAGGEKTGFVTAQSFIAMWRKLLNNHHDDASKFICLLAKPNCSSLEQEDFIPLLQDVVDTHPGLTFLKDAPEFHSRYITTVIQRIFYTVNRSWSGKITSTEIRKSNFLQTLALLEEEEDINQITDYFSYEHFYVIYCKFWELDTDHDLYISQADLSRYNDQASSSRIIERIFSGAVTRGKTIQKEGRMSYADFVWFLISEEDKRNPTSIEYWFRCMDVDGDGVLSMYELEYFYEEQCERMEAMGIEPLPFHDLLCQMLDLVKPAVDGKITLRDLKRCRMAHIFYDTFFNLEKYLDHEQRDPFAVQKDVENDGPEPSDWDRFAAEEYETLVAEESAQAQFQEGFEDYETDEPASPSEFGNKSNKILSASLPEKCGKLQSVDEE
Consider B1, for which the binding entry was “binds”.
